The structures appear in SMILES notation.

One data set is described as follows: physchem. The following applies: pH 7.4.
Another data set is described as follows: in vitro. The following applies: human, Caco-2.

Regarding `COC(=O)C1=C(C)NC(C)=C(C(=O)OC)C1c1ccccc1[N+](=O)[O-]` [Nifedipine], the log distribution coefficient (logD) (usually the decadic logarithm of the distribution of all forms, ionised or not, between an organic phase and buffer at a given pH) in the data set “physchem” amounted to 3.15. In addition, the apparent permeability (Papp) (in general, a coefficient for how fast a substance crosses the barrier) in the data set “in vitro” worked out at 78.3 ×10⁻⁶ cm/s.

The record behind these values is paper PMC12592420, “A mismatch in enzyme-redox partnerships underlies divergent cytochrome P450 activities between human hepatocytes and microsomes” (Communications Biology, 2025).
